One compound from US10149855B2, “Gamma-secretase inhibition reduce APOC3 levels and plasma triglycerides” (THE TRUSTEES OF COLUMBIA UNIVERSITY IN THE CITY OF NEW YORK, priority 2014, dated 2018) can be followed below.

In the data set the test system is Lean mice, diet induced obese (DIO) mice, and leptin-deficient obese (ob/ob) mice. Briefly: Weight, glucose and insulin of mice administered GSI (DBZ) or vehicle. The data set is classed as in vivo. The protocol:
Lean mice, diet induced obese (DIO) mice, and leptin-deficient obese (ob/ob) mice were administered either vehicle or GSI. [table]

In the case of `C[C@H](NC(=O)Cc1cc(F)cc(F)c1)C(=O)N[C@@H]1C(=O)N(C)c2ccccc2-c2ccccc21` [GSI, N-[(1S)-2-[[(7S)-6,7-dihydro-5-methyl-6-oxo-5H-dibenz[b,d]azepin-7-yl]amino]-1-methyl-2-oxoethyl]-3,5-difluoro-benzeneacetamide], the Weight is, setting by setting: (DIO mice) 33 ± 0.7 grams; (lean mice) 22 ± 0.6 grams; (ob/ob mice) 48 ± 0.9 grams.
